From PubChem BioAssay AID248 (DTP/NCI, 2004)
The list is a part of this screen's results and no random one: it gathers tests that were run many times, whatever their T/C, doses with no T/C, and many T/C values between a quarter and a half above the control. Other doses and runs of a compound stand elsewhere. T/C: endpoint of the treated group in % of that of the vehicle group. Some entries give survivors of the animals treated and no T/C: the source holds a T/C of zero for them, seemingly a mark for toxic or unscored doses. Some doses without a T/C left all or most animals alive at the check, yet need not have been tolerated: survival well below the control is almost never listed, so the zero probably covers shortened survival too. Counts of survivors are from the toxicity check (mostly the fifth day) where no day follows; animals may have died later. Schedule codes are those of the source, taken here to give the interval after Q, in days (D) or hours (H), and the number of doses after X. Some entries were tested several times; their values stand side by side, smallest first. Some schedule codes hold Z or #, which are not explained here. Where survival is the endpoint, this PubChem deposit counts one and a half times the control or more as active, and values a quarter to a half above the control carry no call in these data; other NCI protocols may use other cut-offs. Some T/C values are followed by the survivors on the day toxicity was checked, most often the fifth; where none is given, no animal had died by that day.

System: L1210 leukemia ip in BDF1 mice, survival T/C
Assay: NCI In Vivo Anticancer Drug Screen. Data for tumor model L1210 Leukemia (intraperitoneal) in B6D2F1 (BDF1) mice
Details: T/C endpoint: mean survival time, higher T/C = longer survival
[1] = dose: 200.0 mg/kg/injection, schedule: Q04DX003 (ip), vehicle: saline with Tween-80
[2] = dose: 400.0 mg/kg/injection, schedule: Q04DX003 (ip), vehicle: saline with Tween-80
[3] = dose: 200.0 mg/kg/injection, schedule: Q01DX009 (ip), vehicle: saline with Tween-80
[4] = dose: 400.0 mg/kg/injection, schedule: Q01DX009 (ip), vehicle: saline with Tween-80
[5] = dose: 400.0 mg/kg/injection, schedule: Q01DX009 (ip), vehicle: Klucel (hydroxypropylcellulose) (HPC)
[6] = dose: 200.0 mg/kg/injection, schedule: Q01DX009 (ip), vehicle: Klucel (hydroxypropylcellulose) (HPC)

With COc1n[n+]([O-])c([N+](=O)[O-])c(C)c1[N+](=O)[O-] the survivor count (dose: 37.5 mg/kg/injection, schedule: Q04DX002 (ip), vehicle: Klucel (hydroxypropylcellulose) (HPC)) was 0 of 3, the survivor count (dose: 75.0 mg/kg/injection, schedule: Q04DX002 (ip), vehicle: Klucel (hydroxypropylcellulose) (HPC)) was 0 of 3 and the survivor count (dose: 150.0 mg/kg/injection, schedule: Q04DX002 (ip), vehicle: Klucel (hydroxypropylcellulose) (HPC)) was 0 of 3.

In the case of CN(C)CCOc1cccc(OCCN(C)C)n1, the survivor count (dose: 100.0 mg/kg/injection, schedule: Q04DX003 (ip), vehicle: saline with Tween-80) is reported as 3 of 6, the survivor count [1] is reported as 0 of 6 and the survivor count [2] is reported as 0 of 6.

In the case of Cn1c(=N)sc2ccc3ccccc3c21, the survivor count (dose: 200.0 mg/kg/injection, schedule: Q04DX003 (ip), vehicle: Klucel (hydroxypropylcellulose) (HPC)) is reported as 6 of 6 and the survivor count (dose: 400.0 mg/kg/injection, schedule: Q04DX003 (ip), vehicle: Klucel (hydroxypropylcellulose) (HPC)) is reported as 6 of 6.

In the case of CC(=O)Nc1cccc(N=Cc2ccc(N(CCOS(C)(=O)=O)CCOS(C)(=O)=O)cc2C)c1, the T/C (dose: 12.0 mg/kg/injection, schedule: Q01DX009 (ip), vehicle: saline with Tween-80) is reported as 140 % of control, the T/C (dose: 18.0 mg/kg/injection, schedule: Q01DX009 (ip), vehicle: saline with Tween-80) is reported as 136 % of control and the survivor count (dose: 100.0 mg/kg/injection, schedule: Q01DX009 (ip), vehicle: saline with Tween-80) is reported as 1 of 6. For the same compound, the survivor count [3] was 0 of 6 and the survivor count [4] was 0 of 6.

For Cn1c(=O)c2[nH]c(Br)nc2n(C)c1=O, the survivor count [5] was 3 of 6.

For Cc1ccc(C(C)C)cc1NC(=O)c1c(Cl)c(Cl)c(Cl)c(Cl)c1C(=O)O, the survivor count [6] was 0 of 6 and the survivor count [5] was 0 of 6.

With CCN(CC)CCCCCCNc1ccnc2cc(Cl)ccc12 the survivor count (dose: 100.0 mg/kg/injection, schedule: Q01DX001 (ip), vehicle: carboxymethylcellulose (CMC)) was 4 of 4, the survivor count (dose: 200.0 mg/kg/injection, schedule: Q01DX001 (ip), vehicle: carboxymethylcellulose (CMC)) was 1 of 4 and the survivor count (dose: 400.0 mg/kg/injection, schedule: Q01DX001 (ip), vehicle: carboxymethylcellulose (CMC)) was 0 of 4.

For Nc1ccc(/C=C\C(=O)NCc2cccnc2)cc1, the survivor count [3] was 2 of 6 and the survivor count [4] was 0 of 6.

With O=C(Nc1ccc(NC2=NCCN2)cc1)c1cc(Cl)cc(C(=O)Nc2ccc(NC3=NCCN3)cc2)c1 the survivor count (dose: 60.0 mg/kg/injection, schedule: Q01DX Z (ip), vehicle: saline) was 1 of 6 and the survivor count (dose: 120.0 mg/kg/injection, schedule: Q01DX Z (ip), vehicle: saline) was 0 of 6.

In the case of CC(=O)Nc1ccc2nc3ccc(NC(C)=O)cc3[n+](-c3ccccc3)c2c1, the T/C (dose: 1.0 mg/kg/injection, schedule: Q01DX Z (ip), vehicle: methylcellulose (MC)) is reported as 135 % of control, the T/C (dose: 2.0 mg/kg/injection, schedule: Q01DX Z (ip), vehicle: methylcellulose (MC)) is reported as 138 % of control and the T/C (dose: 3.1 mg/kg/injection, schedule: Q01DX Z (ip), vehicle: methylcellulose (MC)) is reported as 129 % of control. For the same compound, the T/C (dose: 6.25 mg/kg/injection, schedule: Q01DX Z (ip), vehicle: methylcellulose (MC)) was 131 % of control, the T/C (dose: 10.0 mg/kg/injection, schedule: Q01DX Z (ip), vehicle: saline) was 126 % of control and the T/C (dose: 10.0 mg/kg/injection, schedule: Q#A X Z (ip), vehicle: saline) was 129 % of control. The T/C (dose: 12.0 mg/kg/injection, schedule: Q01DX009 (ip), vehicle: saline) was 141 % of control, the T/C (dose: 17.5 mg/kg/injection, schedule: Q07DX Z (ip), vehicle: saline) was 132 % of control and the T/C (dose: 25.0 mg/kg/injection, schedule: Q01DX009 (ip), vehicle: saline) was 147 % of control. For the same compound, the T/C (dose: 30.0 mg/kg/injection, schedule: Q03DX Z (ip), vehicle: saline) was 134 % of control, the T/C (dose: 31.25 mg/kg/injection, schedule: Q01DX009 (ip), vehicle: saline) was 141 % of control and the T/C (dose: 31.3 mg/kg/injection, schedule: Q01DX009 (ip), vehicle: saline) was 141 % of control. The T/C (dose: 35.0 mg/kg/injection, schedule: Q07DX Z (ip), vehicle: saline) was 136 % of control, the T/C (dose: 60.0 mg/kg/injection, schedule: Q03DX Z (ip), vehicle: saline) was 134 and 148 % of control and the T/C (dose: 62.5 mg/kg/injection, schedule: Q01DX009 (ip), vehicle: saline) was 142, 162, 163, 198 % of control. For the same compound, the T/C (dose: 70.0 mg/kg/injection, schedule: Q07DX Z (ip), vehicle: saline) was 129 % of control, the T/C (dose: 120.0 mg/kg/injection, schedule: Q03DX Z (ip), vehicle: saline) was 145 % of control and the T/C (dose: 125.0 mg/kg/injection, schedule: Q01DX009 (ip), vehicle: saline) was 192, 203, 214, 256 % of control. The T/C (dose: 140.0 mg/kg/injection, schedule: Q07DX Z (ip), vehicle: saline) was 136 % of control, the T/C (dose: 177.0 mg/kg/injection, schedule: Q01DX001 (ip), vehicle: saline) was 148 % of control and the T/C (dose: 240.0 mg/kg/injection, schedule: Q03DX Z (ip), vehicle: saline) was 141 % of control. The T/C (dose: 250.0 mg/kg/injection, schedule: Q01DX009 (ip), vehicle: saline) was 110, 130, 140 [5 of 6 alive], 156 % of control [4 of 6 alive], the T/C (dose: 266.0 mg/kg/injection, schedule: Q01DX001 (ip), vehicle: saline) was 128 % of control and the T/C (dose: 280.0 mg/kg/injection, schedule: Q07DX Z (ip), vehicle: saline) was 147 % of control. For the same compound, the T/C (dose: 400.0 mg/kg/injection, schedule: Q01DX001 (ip), vehicle: saline, evaluated on day 30) was 133 % of control, the T/C (dose: 400.0 mg/kg/injection, schedule: Q01DX001 (ip), vehicle: saline, run until all animals had died) was 129 % of control and the T/C (dose: 500.0 mg/kg/injection, schedule: Q01DX Z (oral), vehicle: saline) was 133 % of control. The T/C (dose: 600.0 mg/kg/injection, schedule: Q01DX001 (ip), vehicle: saline, evaluated on day 30) was 126 % of control, the T/C (dose: 600.0 mg/kg/injection, schedule: Q01DX001 (ip), vehicle: saline, run until all animals had died) was 145 % of control and the T/C (dose: 1125.0 mg/kg/injection, schedule: Q01DX Z (oral), vehicle: saline) was 127 % of control.

In the case of Clc1c(Cl)c([O][Sn]([c]2ccccc2)([c]2ccccc2)[c]2ccccc2)c(Cl)c(Cl)c1[O][Sn]([c]1ccccc1)([c]1ccccc1)[c]1ccccc1, the survivor count (dose: 1.56 mg/kg/injection, schedule: Q01DX009 (ip), vehicle: Klucel (hydroxypropylcellulose) (HPC)) is reported as 3 of 3, the survivor count (dose: 6.25 mg/kg/injection, schedule: Q01DX009 (ip), vehicle: Klucel (hydroxypropylcellulose) (HPC)) is reported as 0 of 3 and the survivor count (dose: 12.5 mg/kg/injection, schedule: Q01DX009 (ip), vehicle: Klucel (hydroxypropylcellulose) (HPC)) is reported as 1 of 3. The survivor count (dose: 25.0 mg/kg/injection, schedule: Q01DX009 (ip), vehicle: Klucel (hydroxypropylcellulose) (HPC)) was 0 of 3, the survivor count (dose: 50.0 mg/kg/injection, schedule: Q01DX009 (ip), vehicle: Klucel (hydroxypropylcellulose) (HPC)) was 0 of 3 and the survivor count (dose: 100.0 mg/kg/injection, schedule: Q01DX009 (ip), vehicle: Klucel (hydroxypropylcellulose) (HPC)) was 0 of 3 and 0 of 6. For the same compound, the survivor count [6] was 0 of 6 and the survivor count [5] was 0 of 6.

For COc1cc(NC(=O)Nc2cc(OC)c(OC)c(OC)c2)cc(OC)c1OC, the survivor count [1] was 0 of 6 and the survivor count [2] was 0 of 6.

With CC1CN=C(c2ccc(NC(=O)c3ccc(C(=O)Nc4ccc(C5=NCC(C)CN5)cc4)c(Cl)c3)cc2)NC1 (stereo not drawn) the survivor count (dose: 16.0 mg/kg/injection, schedule: Q01DX015 (ip), vehicle: methylcellulose (MC)) was 0 of 6, the survivor count (dose: 31.0 mg/kg/injection, schedule: Q01DX015 (ip), vehicle: methylcellulose (MC)) was 0 of 6 and the survivor count (dose: 62.0 mg/kg/injection, schedule: Q01DX015 (ip), vehicle: methylcellulose (MC)) was 0 of 6. For the same compound, the survivor count (dose: 125.0 mg/kg/injection, schedule: Q01DX015 (ip), vehicle: methylcellulose (MC)) was 0 of 6.

With CCCCN(C)c1ccc(N=Nc2cc(Cl)ccc2Cl)cc1 the survivor count [1] was 6 of 6.
